Experimental data as given in publication PMC4907247.
These are yes or no findings as the source states them, for the method shown. Binding seen in cells or lysates may run through a third protein.

The chains behind the UniProt entries cited, without tags or fusion partners.
UniProt P15682: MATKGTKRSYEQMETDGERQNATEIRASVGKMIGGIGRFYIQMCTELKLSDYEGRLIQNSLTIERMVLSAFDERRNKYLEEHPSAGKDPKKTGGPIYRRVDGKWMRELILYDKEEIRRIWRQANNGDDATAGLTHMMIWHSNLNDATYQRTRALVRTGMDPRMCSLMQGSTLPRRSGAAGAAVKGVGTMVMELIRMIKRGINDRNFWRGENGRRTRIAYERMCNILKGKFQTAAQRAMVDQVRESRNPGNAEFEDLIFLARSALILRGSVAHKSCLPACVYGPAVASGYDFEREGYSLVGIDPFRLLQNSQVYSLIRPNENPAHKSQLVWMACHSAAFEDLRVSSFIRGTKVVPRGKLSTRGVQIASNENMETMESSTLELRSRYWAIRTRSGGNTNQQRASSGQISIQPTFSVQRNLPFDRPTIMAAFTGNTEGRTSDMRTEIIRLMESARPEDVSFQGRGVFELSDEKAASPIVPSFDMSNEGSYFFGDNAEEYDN

Target: scrambled control peptide
Assay: pull-down; only the target purified

nucleoprotein (NP) of influenza A/WSN/33 virus in infected cell lysates (from UniProt P15682 1-498)
binding: no binding
